# From the supplement of paper PMC8728848
# This is one part of the list.
# B1: CLC (Homo sapiens), Q9UBD9 (protein)
# chain: MDLRAGDSWGMLACLCTVLWHLPAVPALNRTGDPGPGPSIQKTYDLTRYLEHQLRSLAGTYLNYLGPPFNEPDFNPPRLGAETLPRATVDLEVWRSLNDKLRLTQNYEAYSHLLCYLRGLNRQAATAELRRSLAHFCTSLQGLLGSIAGVMAALGYPLPQPLPGTEPTWTPGPAHSDFLQKMDDFWLLKELQTWLWRSAKDFNRLKKKMQPPAAAVTLHLGAHGF
# Legend:
# Assay in all cases: glycan array binding signal (z-score within array); higher = stronger binding
# Conditions in all cases: glycan notation: IUPAC condensed, linker removed
# [1] = molecular target: Fuc(a1-2)Gal
# How it was run: (§1)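 The binding signal is a Z-score computed within each array. Data were drawn from 3228 arrays in the Consortium for Functional Glycomics database, restricted to those with a known protein sequence. Scores were averaged over arrays of the same protein sequence at different concentrations or buffers, and over linkers, and negative values can be taken as non-binding.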
# [2] = molecular target: Fuc(a1-2)Gal(b1-3)GalNAc
# How it was run: as §1
# [3] = molecular target: Fuc(a1-2)Gal(b1-3)GalNAc(b1-3)Gal
# How it was run: as §1
# [4] = molecular target: Fuc(a1-2)Gal(b1-3)GalNAc(b1-3)Gal(a1-4)Gal(b1-4)Glc
# How it was run: as §1
# [5] = molecular target: Fuc(a1-2)Gal(b1-3)GalNAc(b1-4)[Neu5Ac(a2-3)]Gal(b1-4)Glc
# How it was run: as §1
# [6] = molecular target: Fuc(a1-2)Gal(b1-3)GlcNAc
# How it was run: as §1
# [7] = molecular target: Fuc(a1-2)Gal(b1-3)GlcNAc(b1-3)Gal(b1-4)Glc
# How it was run: as §1
# [8] = molecular target: Fuc(a1-2)Gal(b1-3)[Fuc(a1-4)]GlcNAc
# How it was run: as §1
# [9] = molecular target: Fuc(a1-2)Gal(b1-4)Glc
# How it was run: as §1
# [10] = molecular target: Fuc(a1-2)Gal(b1-4)Glc6S
# How it was run: as §1
# [11] = molecular target: Fuc(a1-2)Gal(b1-4)GlcNAc
# How it was run: as §1
# [12] = molecular target: Fuc(a1-2)Gal(b1-4)GlcNAc(b1-3)Gal(b1-4)GlcNAc
# How it was run: as §1
# [13] = molecular target: Fuc(a1-2)Gal(b1-4)GlcNAc(b1-3)Gal(b1-4)GlcNAc(b1-3)Gal(b1-4)GlcNAc
# How it was run: as §1
# [14] = molecular target: Fuc(a1-2)Gal(b1-4)GlcNAc6S
# How it was run: as §1
# [15] = molecular target: Fuc(a1-2)Gal(b1-4)[Fuc(a1-3)]GlcNAc
# How it was run: as §1
# [16] = molecular target: Fuc(a1-2)Gal(b1-4)[Fuc(a1-3)]GlcNAc(b1-3)Gal(b1-4)[Fuc(a1-3)]GlcNAc
# How it was run: as §1
# [17] = molecular target: Fuc(a1-2)Gal(b1-4)[Fuc(a1-3)]GlcNAc(b1-3)Gal(b1-4)[Fuc(a1-3)]GlcNAc(b1-3)Gal(b1-4)[Fuc(a1-3)]GlcNAc
# How it was run: as §1
# [18] = molecular target: Fuc(a1-2)Gal6S(b1-4)Glc
# How it was run: as §1
# [19] = molecular target: Fuc(a1-2)Gal6S(b1-4)Glc6S
# How it was run: as §1
# [20] = molecular target: Fuc(a1-2)Gal6S(b1-4)GlcNAc
# How it was run: as §1
# [21] = molecular target: Fuc(a1-2)[Gal(a1-3)]Gal
# How it was run: as §1
# [22] = molecular target: Fuc(a1-2)[Gal(a1-3)]Gal(b1-3)GlcNAc
# How it was run: as §1
# [23] = molecular target: Fuc(a1-2)[Gal(a1-3)]Gal(b1-4)Glc
# How it was run: as §1
# [24] = molecular target: Fuc(a1-2)[Gal(a1-3)]Gal(b1-4)GlcNAc
# How it was run: as §1
# [25] = molecular target: Fuc(a1-2)[Gal(a1-3)]Gal(b1-4)[Fuc(a1-3)]GlcNAc
# How it was run: as §1
# [26] = molecular target: Fuc(a1-2)[Gal(a1-4)]Gal(b1-4)GlcNAc
# How it was run: as §1
# [27] = molecular target: Fuc(a1-2)[GalNAc(a1-3)]Gal
# How it was run: as §1
# [28] = molecular target: Fuc(a1-2)[GalNAc(a1-3)]Gal(b1-3)GlcNAc
# How it was run: as §1
# [29] = molecular target: Fuc(a1-2)[GalNAc(a1-3)]Gal(b1-4)Glc
# How it was run: as §1
# [30] = molecular target: Fuc(a1-2)[GalNAc(a1-3)]Gal(b1-4)GlcNAc
# How it was run: as §1
# [31] = molecular target: Fuc(a1-2)[GalNAc(a1-3)]Gal(b1-4)[Fuc(a1-3)]GlcNAc
# How it was run: as §1
# [32] = molecular target: Fuc(a1-2)[GalNAc(a1-4)]Gal(b1-4)GlcNAc
# How it was run: as §1
# [33] = molecular target: Fuc(a1-2)[GalNAc(b1-3)]Gal
# How it was run: as §1
# [34] = molecular target: Fuc(a1-3)GlcNAc
# How it was run: as §1
# [35] = molecular target: Fuc(a1-3)[Gal(b1-4)]Glc6S
# How it was run: as §1
# [36] = molecular target: Fuc(a1-3)[Gal(b1-4)]GlcNAc
# How it was run: as §1
# [37] = molecular target: Fuc(a1-3)[Gal(b1-4)]GlcNAc(b1-2)Man(a1-3)[Fuc(a1-3)[Gal(b1-4)]GlcNAc(b1-2)Man(a1-6)]Man(b1-4)GlcNAc(b1-4)GlcNAc
# How it was run: as §1
# [38] = molecular target: Fuc(a1-3)[Gal(b1-4)]GlcNAc(b1-2)Man(a1-6)[Gal(b1-4)GlcNAc(b1-2)Man(a1-3)]Man(b1-4)GlcNAc(b1-4)GlcNAc
# How it was run: as §1
# [39] = molecular target: Fuc(a1-3)[Gal(b1-4)]GlcNAc(b1-3)Gal(b1-3)[Fuc(a1-4)]GlcNAc
# How it was run: as §1
# [40] = molecular target: Fuc(a1-3)[Gal(b1-4)]GlcNAc(b1-4)Gal(b1-4)[Fuc(a1-3)]GlcNAc
# How it was run: as §1
# [41] = molecular target: Fuc(a1-3)[Gal(b1-4)]GlcNAc(b1-4)Gal(b1-4)[Fuc(a1-3)]GlcNAc(b1-4)Gal(b1-4)[Fuc(a1-3)]GlcNAc
# How it was run: as §1
# [42] = molecular target: Fuc(a1-3)[Gal(b1-4)]GlcNAc6S
# How it was run: as §1
# [43] = molecular target: Fuc(a1-3)[Gal3S(b1-4)]Glc6S
# How it was run: as §1
# [44] = molecular target: Fuc(a1-3)[Gal3S(b1-4)]GlcNAc
# How it was run: as §1
# [45] = molecular target: Fuc(a1-3)[Gal3S(b1-4)]GlcNAc6S
# How it was run: as §1
# [46] = molecular target: Fuc(a1-3)[GalNAc(b1-4)]GlcNAc
# How it was run: as §1
# [47] = molecular target: Fuc(a1-4)GlcNAc
# How it was run: as §1
# [48] = molecular target: Fuc(b1-3)GlcNAc
# How it was run: as §1
# [49] = molecular target: Gal(a1-2)Gal
# How it was run: as §1
# [50] = molecular target: Gal(a1-3)Gal
# How it was run: as §1
# [51] = molecular target: Gal(a1-3)Gal(b1-3)GlcNAc
# How it was run: as §1
# [52] = molecular target: Gal(a1-3)Gal(b1-4)Glc
# How it was run: as §1
# [53] = molecular target: Gal(a1-3)Gal(b1-4)GlcNAc
# How it was run: as §1
# [54] = molecular target: Gal(a1-3)Gal(b1-4)[Fuc(a1-3)]GlcNAc
# How it was run: as §1
# [55] = molecular target: Gal(a1-3)GalNAc
# How it was run: as §1
# [56] = molecular target: Gal(a1-3)[Gal(a1-4)]Gal(b1-4)GlcNAc
# How it was run: as §1
# [57] = molecular target: Gal(a1-4)Gal(b1-4)Glc
# How it was run: as §1
# [58] = molecular target: Gal(a1-4)Gal(b1-4)GlcNAc
# How it was run: as §1
# [59] = molecular target: Gal(a1-4)GlcNAc
# How it was run: as §1
# [60] = molecular target: Gal(a1-6)Glc
# How it was run: as §1
binder,measurement,setting,value
B1,glycan array binding signal (z-score),[1],-0.642
same,glycan array binding signal (z-score),[2],0.106
same,glycan array binding signal (z-score),[3],0.79
same,glycan array binding signal (z-score),[4],-0.131
same,glycan array binding signal (z-score),[5],1.57
same,glycan array binding signal (z-score),[6],-0.253
same,glycan array binding signal (z-score),[7],-0.218
same,glycan array binding signal (z-score),[8],-0.678
same,glycan array binding signal (z-score),[9],0.506
same,glycan array binding signal (z-score),[10],-0.7
same,glycan array binding signal (z-score),[11],-0.022
same,glycan array binding signal (z-score),[12],-0.731
same,glycan array binding signal (z-score),[13],-0.886
same,glycan array binding signal (z-score),[14],-0.106
same,glycan array binding signal (z-score),[15],-0.557
same,glycan array binding signal (z-score),[16],-0.519
same,glycan array binding signal (z-score),[17],0.011
same,glycan array binding signal (z-score),[18],-0.134
same,glycan array binding signal (z-score),[19],2.23
same,glycan array binding signal (z-score),[20],0.416
same,glycan array binding signal (z-score),[21],-0.644
same,glycan array binding signal (z-score),[22],-0.33
same,glycan array binding signal (z-score),[23],-0.24
same,glycan array binding signal (z-score),[24],1.5
same,glycan array binding signal (z-score),[25],0.566
same,glycan array binding signal (z-score),[26],0.55
same,glycan array binding signal (z-score),[27],-0.451
same,glycan array binding signal (z-score),[28],-0.974
same,glycan array binding signal (z-score),[29],1.52
same,glycan array binding signal (z-score),[30],-0.283
same,glycan array binding signal (z-score),[31],-0.821
same,glycan array binding signal (z-score),[32],-0.709
same,glycan array binding signal (z-score),[33],-0.573
same,glycan array binding signal (z-score),[34],-0.966
same,glycan array binding signal (z-score),[35],0.419
same,glycan array binding signal (z-score),[36],0.603
same,glycan array binding signal (z-score),[37],-0.566
same,glycan array binding signal (z-score),[38],-1.13
same,glycan array binding signal (z-score),[39],0.788
same,glycan array binding signal (z-score),[40],-0.378
same,glycan array binding signal (z-score),[41],-0.386
same,glycan array binding signal (z-score),[42],-0.923
same,glycan array binding signal (z-score),[43],0.919
same,glycan array binding signal (z-score),[44],-0.496
same,glycan array binding signal (z-score),[45],2.72
same,glycan array binding signal (z-score),[46],0.049
same,glycan array binding signal (z-score),[47],-0.798
same,glycan array binding signal (z-score),[48],-0.899
same,glycan array binding signal (z-score),[49],-0.065
same,glycan array binding signal (z-score),[50],0.801
same,glycan array binding signal (z-score),[51],-0.75
same,glycan array binding signal (z-score),[52],-0.691
same,glycan array binding signal (z-score),[53],-1.1
same,glycan array binding signal (z-score),[54],-0.023
same,glycan array binding signal (z-score),[55],-0.812
same,glycan array binding signal (z-score),[56],-0.598
same,glycan array binding signal (z-score),[57],0.465
same,glycan array binding signal (z-score),[58],0.058
same,glycan array binding signal (z-score),[59],-0.694
same,glycan array binding signal (z-score),[60],-0.312

# As a working copy, part of the list above.
binder,measurement,setting,value
B1,glycan array binding signal (z-score),[11],-0.022
same,glycan array binding signal (z-score),[12],-0.731
same,glycan array binding signal (z-score),[13],-0.886
same,glycan array binding signal (z-score),[14],-0.106
same,glycan array binding signal (z-score),[15],-0.557
same,glycan array binding signal (z-score),[16],-0.519
same,glycan array binding signal (z-score),[17],0.011
same,glycan array binding signal (z-score),[18],-0.134
same,glycan array binding signal (z-score),[19],2.23
same,glycan array binding signal (z-score),[20],0.416
same,glycan array binding signal (z-score),[21],-0.644
same,glycan array binding signal (z-score),[22],-0.33
same,glycan array binding signal (z-score),[23],-0.24
same,glycan array binding signal (z-score),[24],1.5
same,glycan array binding signal (z-score),[25],0.566
same,glycan array binding signal (z-score),[26],0.55
same,glycan array binding signal (z-score),[27],-0.451
